PubChem BioAssay AID1259405, NCATS – 2018
Aim: 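Knock-downs that lift recombinant protein yield in hamster ovary cells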 (primary screen). Cells: Chinese hamster CHO-K1 ovary cells with stable secreted eGFP expression. Reagents: single siRNA against mouse genes, 0.8 pmol siRNA per well (2 µl of 400 nM stock). Time to read-out: 3 days. Measurement: 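Percent of the per-plate non-targeting control median for intracellular GFP per well by laser scanning cytometry and for cell viability by ATP luminescence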. Reading the numbers: GFP, % of control: higher = more GFP per well, higher productivity; viability (ATP), % of control: higher = more viable cells (more ATP). Rule for the call: 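a knock-down is called active if GFP reaches 120% or more of non-targeting control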.
The deposit covers about 50,000 reagents; below is an unselected part. About 4,000 of all reagents (8%) were called active. 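Mouse siRNA library applied to hamster cells; one well for each siRNA.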 Entries without a mark were called inactive. The numbers tell different reagents against one gene apart.

Target gene | reagent | GFP, % of control | viability (ATP), % of control
Slamf6 (SLAM family member 6) | 1 | 88.6 | 142
Slamf6 (SLAM family member 6) | 2 | 72.6 | 79.7
Zbtb6 (zinc finger and BTB domain containing 6) | 1 | 69.4 | 56.5
Zbtb6 (zinc finger and BTB domain containing 6) | 2 | 96.6 | 86.7
Zbtb6 (zinc finger and BTB domain containing 6) | 3 | 97.4 | 87.7
Psmg3 (proteasome (prosome, macropain) assembly chaperone 3) | 1 | 110 | 93.9
Psmg3 (proteasome (prosome, macropain) assembly chaperone 3) | 2 | 90.7 | 90.1
Psmg3 (proteasome (prosome, macropain) assembly chaperone 3) | 3 | 45.1 | 62.4
Lsm10 (U7 snRNP-specific Sm-like protein LSM10) | 1 | 79.5 | 73.1
Lsm10 (U7 snRNP-specific Sm-like protein LSM10) | 2 | 65.7 | 65.5
Lsm10 (U7 snRNP-specific Sm-like protein LSM10) | 3 | 59.9 | 65
Clstn3 (calsyntenin 3) | 1 | 82.1 | 62.3
Clstn3 (calsyntenin 3) | 2 | 59.4 | 59.2
Snx2 (sorting nexin 2) | 1 | 84.1 | 105
Snx2 (sorting nexin 2) | 2 | 86.7 | 71.1
Nat8f4 (N-acetyltransferase 8 (GCN5-related) family member 4) | 1 | 51.2 | 54.3
Nat8f4 (N-acetyltransferase 8 (GCN5-related) family member 4) | 2 | 58.1 | 54.2
Nat8f4 (N-acetyltransferase 8 (GCN5-related) family member 4) | 3 | 36.6 | 59.6
Cabin1 (calcineurin binding protein 1) | 1 | 72.6 | 84.5
Cabin1 (calcineurin binding protein 1) | 2 | 86.6 | 93.9
Cabin1 (calcineurin binding protein 1) | 3 | 92.6 | 137
Vil1 (villin 1) | 1 | 93.8 | 95.1
Vil1 (villin 1) | 2 | 99.9 | 110
H2-Q8 (histocompatibility 2, Q region locus 8) | 1 | 158 (active) | 98.8
H2-Q8 (histocompatibility 2, Q region locus 8) | 2 | 42.2 | 50.6
H2-Q8 (histocompatibility 2, Q region locus 8) | 3 | 43.5 | 80.5
Coro1c (coronin, actin binding protein 1C) | 1 | 72.8 | 64.2
Coro1c (coronin, actin binding protein 1C) | 2 | 78.3 | 75.3
Coro1c (coronin, actin binding protein 1C) | 3 | 78.5 | 58.8
Rprd1a (regulation of nuclear pre-mRNA domain containing 1A) | 1 | 46.4 | 36.6
Rprd1a (regulation of nuclear pre-mRNA domain containing 1A) | 2 | 69.7 | 82.8
Rprd1a (regulation of nuclear pre-mRNA domain containing 1A) | 3 | 97.4 | 109
Pwwp3a (PWWP domain containing 3A, DNA repair factor) | 1 | 79.4 | 58.3
Pwwp3a (PWWP domain containing 3A, DNA repair factor) | 2 | 51.3 | 71.6
Pwwp3a (PWWP domain containing 3A, DNA repair factor) | 3 | 33.9 | 54
Btbd17 (BTB domain containing 17) | 1 | 79.3 | 90.3
Btbd17 (BTB domain containing 17) | 2 | 73.6 | 91.6
Btbd17 (BTB domain containing 17) | 3 | 56.3 | 65.2
Usp15 (ubiquitin specific peptidase 15) | 1 | 86.9 | 93.4
Usp15 (ubiquitin specific peptidase 15) | 2 | 46.5 | 66.9
Usp15 (ubiquitin specific peptidase 15) | 3 | 104 | 70
Slc25a1 | 1 | 120 | 106
Slc25a1 | 2 | 118 | 106
Slc25a1 | 3 | 163 (active) | 141
Ralgapa1 (Ral GTPase activating protein, alpha subunit 1) | 1 | 75.9 | 51.6
Ralgapa1 (Ral GTPase activating protein, alpha subunit 1) | 2 | 112 | 85.9
Ralgapa1 (Ral GTPase activating protein, alpha subunit 1) | 3 | 32.9 | 34.9
Cdc42se2 (CDC42 small effector 2) | 1 | 104 | 84.2
Cdc42se2 (CDC42 small effector 2) | 2 | 81.4 | 78
Cdc42se2 (CDC42 small effector 2) | 3 | 50.6 | 56.7
Arhgap45 (Rho GTPase activating protein 45) | 1 | 311 (active) | 121
Arhgap45 (Rho GTPase activating protein 45) | 2 | 67.5 | 57.9
Arhgap45 (Rho GTPase activating protein 45) | 3 | 157 (active) | 89.5
Arhgap45 (Rho GTPase activating protein 45) | 4 | 67.2 | 85.1
Arhgap45 (Rho GTPase activating protein 45) | 5 | 103 | 93.1
Arhgap45 (Rho GTPase activating protein 45) | 6 | 90.2 | 97
Stc2 (stanniocalcin 2) | 1 | 89.9 | 64
Stc2 (stanniocalcin 2) | 2 | 57.1 | 72.3
Stc2 (stanniocalcin 2) | 3 | 84.8 | 67.1
Dynlt2a1 (dynein light chain Tctex-type 2A1) | 1 | 107 | 96.7
Dynlt2a1 (dynein light chain Tctex-type 2A1) | 2 | 105 | 85.8
Dynlt2a1 (dynein light chain Tctex-type 2A1) | 3 | 144 (active) | 86.1
Sertad2 (SERTA domain containing 2) | 1 | 48.3 | 36.8
Sertad2 (SERTA domain containing 2) | 2 | 87.5 | 68.5
Sertad2 (SERTA domain containing 2) | 3 | 74.9 | 77.9
Orai1 (ORAI calcium release-activated calcium modulator 1) | 1 | 73.5 | 110
Orai1 (ORAI calcium release-activated calcium modulator 1) | 2 | 75.4 | 105
Orai1 (ORAI calcium release-activated calcium modulator 1) | 3 | 84.4 | 87.9
4930524B15Rik (RIKEN cDNA 4930524B15 gene) | 1 | 57.8 | 57.8
4930524B15Rik (RIKEN cDNA 4930524B15 gene) | 2 | 84.3 | 55.8
4930524B15Rik (RIKEN cDNA 4930524B15 gene) | 3 | 114 | 78
Lbx2 (ladybird homeobox 2) | 1 | 91.3 | 86.7
Lbx2 (ladybird homeobox 2) | 2 | 68.1 | 60.8
Lbx2 (ladybird homeobox 2) | 3 | 46.7 | 51.1
Phkg2 (phosphorylase kinase, gamma 2 (testis)) | 1 | 169 (active) | 83.8
Washc3 (WASH complex subunit 3) | 1 | 82.2 | 74.8
Washc3 (WASH complex subunit 3) | 2 | 69.9 | 68.1
Washc3 (WASH complex subunit 3) | 3 | 78.5 | 75.5
Ntpcr (nucleoside-triphosphatase, cancer-related) | 1 | 100 | 71.7
Ntpcr (nucleoside-triphosphatase, cancer-related) | 2 | 62.8 | 59.8
Ntpcr (nucleoside-triphosphatase, cancer-related) | 3 | 72.3 | 70.4
Tg (thyroglobulin) | 1 | 25.3 | 62.5
Tg (thyroglobulin) | 2 | 88.1 | 74
Tg (thyroglobulin) | 3 | 87.4 | 119
